Article PMC12390935
No constants are given. Whether binding was seen depends on the method and setting. Binding seen in cells or lysates may run through a third protein. Some entries that bind do so weakly or less than the wild type. For part of these data: Tags and fused reporters may be left off the sequences shown. Values belong to the molecule of their own block, whether it stands above or below them.

Protein sequences, listed by entry. Tags and fused reporters are not part of them.
UniProt P06733: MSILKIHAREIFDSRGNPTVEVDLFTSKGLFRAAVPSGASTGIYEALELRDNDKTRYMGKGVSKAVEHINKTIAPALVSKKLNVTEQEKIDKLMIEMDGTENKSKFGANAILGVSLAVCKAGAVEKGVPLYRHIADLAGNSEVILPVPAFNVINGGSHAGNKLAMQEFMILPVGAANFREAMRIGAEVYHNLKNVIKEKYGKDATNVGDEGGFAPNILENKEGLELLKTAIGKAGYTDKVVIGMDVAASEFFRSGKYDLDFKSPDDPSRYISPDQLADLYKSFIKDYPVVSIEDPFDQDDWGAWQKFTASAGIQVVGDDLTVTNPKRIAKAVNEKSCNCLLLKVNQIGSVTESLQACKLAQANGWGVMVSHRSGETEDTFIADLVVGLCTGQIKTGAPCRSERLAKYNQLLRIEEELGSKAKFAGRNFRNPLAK
UniProt P35579: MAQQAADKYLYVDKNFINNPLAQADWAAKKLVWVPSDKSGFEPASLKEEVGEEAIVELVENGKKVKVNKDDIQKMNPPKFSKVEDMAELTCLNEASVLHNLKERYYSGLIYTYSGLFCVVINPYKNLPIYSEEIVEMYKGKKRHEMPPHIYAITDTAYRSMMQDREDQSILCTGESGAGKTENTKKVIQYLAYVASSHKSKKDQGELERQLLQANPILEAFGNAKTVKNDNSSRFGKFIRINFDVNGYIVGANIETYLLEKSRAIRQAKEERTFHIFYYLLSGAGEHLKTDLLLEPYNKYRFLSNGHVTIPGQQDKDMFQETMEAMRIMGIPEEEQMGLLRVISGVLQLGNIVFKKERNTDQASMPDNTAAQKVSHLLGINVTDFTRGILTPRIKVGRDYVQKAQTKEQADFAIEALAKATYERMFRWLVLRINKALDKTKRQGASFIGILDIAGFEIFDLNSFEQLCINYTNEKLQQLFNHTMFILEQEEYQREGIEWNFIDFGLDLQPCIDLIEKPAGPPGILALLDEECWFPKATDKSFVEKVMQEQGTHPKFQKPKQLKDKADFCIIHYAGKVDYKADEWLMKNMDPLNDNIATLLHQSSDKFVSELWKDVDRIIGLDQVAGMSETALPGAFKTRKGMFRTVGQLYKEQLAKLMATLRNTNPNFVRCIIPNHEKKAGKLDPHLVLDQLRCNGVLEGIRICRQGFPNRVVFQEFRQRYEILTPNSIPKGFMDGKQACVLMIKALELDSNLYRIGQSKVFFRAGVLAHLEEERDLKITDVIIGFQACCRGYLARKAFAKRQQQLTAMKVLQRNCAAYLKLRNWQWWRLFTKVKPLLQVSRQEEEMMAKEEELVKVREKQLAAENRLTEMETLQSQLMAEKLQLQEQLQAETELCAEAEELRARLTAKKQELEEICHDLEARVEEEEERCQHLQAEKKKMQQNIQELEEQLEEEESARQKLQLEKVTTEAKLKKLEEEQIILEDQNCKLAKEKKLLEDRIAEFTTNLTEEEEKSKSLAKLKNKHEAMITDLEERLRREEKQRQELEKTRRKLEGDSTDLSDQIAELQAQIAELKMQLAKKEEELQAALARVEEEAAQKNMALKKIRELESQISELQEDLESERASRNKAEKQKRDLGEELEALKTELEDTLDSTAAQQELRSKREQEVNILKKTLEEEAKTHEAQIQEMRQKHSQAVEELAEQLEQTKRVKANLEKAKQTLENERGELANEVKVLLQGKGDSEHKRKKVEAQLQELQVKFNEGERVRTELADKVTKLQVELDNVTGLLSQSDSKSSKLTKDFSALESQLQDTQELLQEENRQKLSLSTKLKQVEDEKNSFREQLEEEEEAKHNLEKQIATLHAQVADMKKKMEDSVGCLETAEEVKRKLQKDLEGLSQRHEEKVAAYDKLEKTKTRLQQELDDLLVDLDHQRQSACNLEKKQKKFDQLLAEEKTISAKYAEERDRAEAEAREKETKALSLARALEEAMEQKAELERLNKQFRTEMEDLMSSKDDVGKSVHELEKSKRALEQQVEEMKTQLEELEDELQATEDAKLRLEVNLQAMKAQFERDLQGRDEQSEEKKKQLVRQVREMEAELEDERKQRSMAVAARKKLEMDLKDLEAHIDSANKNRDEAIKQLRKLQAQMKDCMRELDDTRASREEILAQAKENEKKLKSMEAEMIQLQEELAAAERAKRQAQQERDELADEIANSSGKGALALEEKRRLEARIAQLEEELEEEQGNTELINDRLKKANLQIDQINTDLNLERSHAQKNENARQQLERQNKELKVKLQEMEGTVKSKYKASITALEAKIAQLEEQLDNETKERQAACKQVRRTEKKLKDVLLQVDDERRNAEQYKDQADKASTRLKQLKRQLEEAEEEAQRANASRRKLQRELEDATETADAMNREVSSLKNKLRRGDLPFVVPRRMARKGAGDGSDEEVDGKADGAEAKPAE
UniProt Q9UM07: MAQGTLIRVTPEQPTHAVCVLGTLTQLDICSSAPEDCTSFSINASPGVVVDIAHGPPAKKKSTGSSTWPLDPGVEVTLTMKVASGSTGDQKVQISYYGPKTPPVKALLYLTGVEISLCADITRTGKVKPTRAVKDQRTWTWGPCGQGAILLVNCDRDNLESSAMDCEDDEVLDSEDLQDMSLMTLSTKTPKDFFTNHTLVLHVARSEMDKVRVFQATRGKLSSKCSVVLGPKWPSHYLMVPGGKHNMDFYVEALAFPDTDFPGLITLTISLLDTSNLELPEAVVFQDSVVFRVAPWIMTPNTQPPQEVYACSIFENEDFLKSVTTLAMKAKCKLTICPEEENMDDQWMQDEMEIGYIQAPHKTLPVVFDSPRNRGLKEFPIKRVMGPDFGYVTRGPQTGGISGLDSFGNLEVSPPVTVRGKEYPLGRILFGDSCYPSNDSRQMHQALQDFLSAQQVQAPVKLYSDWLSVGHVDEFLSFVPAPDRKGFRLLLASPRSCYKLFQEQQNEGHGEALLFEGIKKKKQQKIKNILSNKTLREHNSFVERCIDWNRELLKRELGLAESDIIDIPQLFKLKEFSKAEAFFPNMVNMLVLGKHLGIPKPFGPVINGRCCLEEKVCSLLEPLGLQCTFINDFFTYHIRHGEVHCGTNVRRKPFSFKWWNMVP
UniProt P14598: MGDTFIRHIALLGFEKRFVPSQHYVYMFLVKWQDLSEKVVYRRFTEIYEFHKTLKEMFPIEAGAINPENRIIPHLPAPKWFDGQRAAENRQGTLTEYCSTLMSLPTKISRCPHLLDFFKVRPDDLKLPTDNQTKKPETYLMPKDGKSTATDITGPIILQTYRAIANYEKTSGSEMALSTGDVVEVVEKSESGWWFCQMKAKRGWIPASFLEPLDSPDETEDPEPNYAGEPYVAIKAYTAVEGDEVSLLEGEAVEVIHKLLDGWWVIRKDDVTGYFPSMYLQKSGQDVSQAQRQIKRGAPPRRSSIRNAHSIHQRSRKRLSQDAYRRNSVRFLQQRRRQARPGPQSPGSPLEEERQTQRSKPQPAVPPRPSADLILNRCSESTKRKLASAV
UniProt P60660: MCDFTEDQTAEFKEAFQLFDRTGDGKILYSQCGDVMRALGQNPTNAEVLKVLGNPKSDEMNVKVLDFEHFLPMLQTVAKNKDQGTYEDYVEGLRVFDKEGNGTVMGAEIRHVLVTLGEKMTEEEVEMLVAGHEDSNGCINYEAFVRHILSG

Columns and labels:
[1] = molecular target: T1, FLAG-tagged plastin-2 (LCP1), expressed in 293T cells (UniProt P13796); test: co-IP; 293T cells co-transfected with HA-tagged PAD4 and FLAG-tagged GCA, ENO1, LCP1 or STOM1; Pierce IP Lysis Buffer; anti-FLAG resin or anti-HA agarose; immunoblot
T1 sequence: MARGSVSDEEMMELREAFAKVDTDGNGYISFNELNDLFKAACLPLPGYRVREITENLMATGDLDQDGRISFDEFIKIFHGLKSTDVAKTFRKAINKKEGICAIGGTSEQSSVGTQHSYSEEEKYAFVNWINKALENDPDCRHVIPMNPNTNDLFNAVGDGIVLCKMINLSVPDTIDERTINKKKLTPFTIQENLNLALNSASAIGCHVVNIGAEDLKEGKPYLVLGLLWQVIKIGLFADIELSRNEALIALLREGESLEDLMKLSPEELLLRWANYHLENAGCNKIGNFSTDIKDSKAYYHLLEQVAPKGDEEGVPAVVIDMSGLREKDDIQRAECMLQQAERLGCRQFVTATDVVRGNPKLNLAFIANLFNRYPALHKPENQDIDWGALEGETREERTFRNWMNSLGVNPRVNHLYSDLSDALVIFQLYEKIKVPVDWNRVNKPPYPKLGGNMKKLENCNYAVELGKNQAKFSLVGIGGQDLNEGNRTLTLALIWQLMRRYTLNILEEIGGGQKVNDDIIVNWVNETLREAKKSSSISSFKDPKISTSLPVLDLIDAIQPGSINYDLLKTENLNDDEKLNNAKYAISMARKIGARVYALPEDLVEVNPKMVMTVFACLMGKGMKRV

[2] = molecular target: FLAG-tagged enolase-1 (ENO1), expressed in 293T cells (UniProt P06733); test: as above
[3] = molecular target: T2, FLAG-tagged stomatin (STOM1), expressed in 293T cells (UniProt P27105); test: as above
T2 sequence: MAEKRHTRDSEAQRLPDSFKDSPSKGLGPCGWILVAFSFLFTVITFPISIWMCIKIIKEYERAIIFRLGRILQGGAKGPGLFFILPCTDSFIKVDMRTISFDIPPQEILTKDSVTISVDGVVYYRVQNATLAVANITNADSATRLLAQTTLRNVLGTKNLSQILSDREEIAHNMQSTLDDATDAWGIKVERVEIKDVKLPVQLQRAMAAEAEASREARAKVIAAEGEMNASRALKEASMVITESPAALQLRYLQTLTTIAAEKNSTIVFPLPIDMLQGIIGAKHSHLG

[4] = molecular target: myosin-9, endogenous in THP-1 cells (human (endogenous in THP-1)) (UniProt P35579); test: co-IP; THP-1 lysate (Pierce IP Lysis Buffer, protease inhibitors, 1 mM EGTA); anti-myosin 9 on protein G beads, 2 h; beads alone and normal rabbit IgG as controls; immunoblot for endogenous PAD4
[5] = molecular target: protein arginine deiminase 4 (PAD4), endogenous in neutrophils (human (endogenous in neutrophils)) (UniProt Q9UM07); test: proximity ligation; Duolink PLA in fixed, permeabilized neutrophils of patients with RA or healthy controls; anti-PAD4 combined with anti-MYH9, anti-GCA, anti-MYL6, anti-NCF1 or anti-STOM; anti-PAD4 alone as negative control

Molecule: neutrophil cytosolic factor-1 (NCF1), endogenous in neutrophils (from UniProt P14598 1-390)
- binding [5]: binds

B1: stomatin (STOM), endogenous in neutrophils (protein, UniProt P27105 1-288)
chain: T2 sequence
- binding [5]: binds

B2: grancalcin (GCA), endogenous in neutrophils (protein, UniProt P28676 1-217)
chain: MAYPGYGGGFGNFSIQVPGMQMGQPVPETGPAILLDGYSGPAYSDTYSSAGDSVYTYFSAVAGQDGEVDAEELQRCLTQSGINGTYSPFSLETCRIMIAMLDRDHTGKMGFNAFKELWAALNAWKENFMTVDQDGSGTVEHHELRQAIGLMGYRLSPQTLTTIVKRYSKNGRIFFDDYVACCVKLRALTDFFRKRDHLQQGSANFIYDDFLQGTMAI
- binding [5]: binds

Next, values leading:

- binding [1]: binds
- binding [2]: binds
- binding [3]: binds
Molecule: HA-tagged PAD4 (full length), expressed in 293T cells (from UniProt Q9UM07 1-663) (enzyme)

- binding [4]: binds
Molecule: PAD4, endogenous in THP-1 cells (from UniProt Q9UM07 1-663) (enzyme)

- binding [5]: binds
Molecule: myosin light chain 6 (MYL6), endogenous in neutrophils (from UniProt P60660 1-151)

- binding [5]: binds
Molecule: myosin-9 (MYH9), endogenous in neutrophils (from UniProt P35579 1-1960)
